Reference: patent US20250281621
For some of these results: At least one result comes from cells or an extract, where the contact may be indirect. For some of these results: Whether high values mean tight binding is not given here for every scale. For some of these results: Construct, isoform or probe ends are uncertain for at least one entry.

Chains of the proteins cited; added tags and fusions are not shown. Chains listed by the source or under a name are the forms on record and can include a tag or linker.
Glypican-3 (GPC3), one chain, as listed by the source, chain 2 of 2: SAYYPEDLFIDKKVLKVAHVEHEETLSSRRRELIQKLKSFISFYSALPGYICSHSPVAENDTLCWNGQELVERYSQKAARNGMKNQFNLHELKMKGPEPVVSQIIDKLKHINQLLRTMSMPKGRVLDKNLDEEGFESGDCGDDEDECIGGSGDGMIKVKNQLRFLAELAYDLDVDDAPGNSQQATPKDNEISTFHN

Tests used:
[1] = test system: Glypican-3 (GPC3); test: flow cytometry; settings: fully 2'-OMe, protein on the cell surface
[2] = test system: Glypican-3 (GPC3), endogenous (Homo sapiens); test: binding assay; settings: fully 2'-OMe, protein on the cell surface, protein details: endogenous on Hep3B, HepG2, NCI-H446, Huh7 cells
[3] = test system: Glypican-3 (GPC3); test: binding assay; settings: fully 2'-OMe, method not stated, purified recombinant protein
[4] = Hep3B cells, no refolding needed, data not shown, variant of GRX8 (Min9)

Sequence “AAGCCAUUACCGGGUUGCUACCCGAGGACAAGAGUCGAUGAUGCUU [Min3]” has a binding signal ([1]; GPC3- HEK293 control 444, variant of W2.S4.1_R6F_14 (clone F14), counted as no binding) of 377 MFI.
For “CGUCAUCGGGUUGCUACCCAAGGACAAGAGUCGAUGACG [GRX8 (Min9)]”, the binding result ([2]; high affinity, improved by refolding, FAM-GRX8 accumulates in Hep3B but not A549 (GPC3-) tumors in mice, variant of W2.S4.1_R6F_14 (clone F14)) was “binds” and the Kd ([3]; kon 6.19E4 1/Ms, koff 7.32E-4 1/s, variant of W2.S4.1_R6F_14 (clone F14)) was 13 nM.
“CGUCAUCGGGUUGCUACCCAAGGCCAGGAGGCGAUGACG [GRX49]” was tested, and the binding result ([2]; Hep3B, HepG2, NCI-H446, Huh7, no refolding needed, data not shown, variant of GRX8 (Min9)) was “binds”, the Kd ([3]; kon 1.99E5 1/Ms, koff 1.46E-4 1/s, variant of GRX8 (Min9)) was 0.74 nM and the Kd ([1]; GPC3+ HEK293 cells, variant of GRX8 (Min9)) was 9 nM.
“CGUCAUCGGGUUGCUACCCAAGGCCAGGAGGCGAUGACG [GRX54 (GRX49-DM1 conjugate)]”: binds ([2]; DM1 conjugate, specific binding to Hep3B and NCI-H446, selectively kills GPC3+ cells, variant of GRX49).
In the case of “CGUCAUCGGGUUGCUACCCAAGGUCAAGAGACGAUGACG [GRX46]”, the binding result ([2]; similar enhanced binding and refolding behavior, data not shown, variant of GRX8 (Min9)) is reported as “binds” and the Kd ([3]; kon 5.54E4 1/Ms, koff 7.82E-4 1/s, variant of GRX8 (Min9)) is reported as 15 nM.
In the case of “CGUCAUCGGGUUGCUACCCAAGGUCAGGAGACGAUGACG [GRX8 triple 1]”, the binding result [2, 4] is reported as “binds” and the Kd ([3]; kon 1.12E5 1/Ms, koff 1.59E-4 1/s, listed as GRX8 with triple, variant of GRX8 (Min9)) is reported as 1.41 nM.
For “CGUCAUCGGGUUGCUACCCAAGGUCAGGUGACGAUGACG [GRX8 QUAD6]”, the binding result [2, 4] was “binds” and the Kd ([3]; kon 2.01E5 1/Ms, koff 2.48E-4 1/s, variant of GRX8 (Min9)) was 1.24 nM.
